Reference: the supplement of paper PMC8728848
The list shows a part of the results.

Columns and labels:
Test in all cases: glycan array binding signal (z-score within array); higher = stronger binding
Settings in all cases: glycan notation: IUPAC condensed, linker removed
[1] = target: Fuc(a1-3)[GalNAc(b1-4)]GlcNAc
In short: (§1)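 The binding signal is a Z-score computed within each array and averaged over linkers. Arrays of the same protein sequence at different concentrations or buffers were also averaged together. Data originate from 3228 arrays in the Consortium for Functional Glycomics database, kept only where the protein sequence was available.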

[2] = target: Fuc(a1-4)GlcNAc
In short: as §1

[3] = target: Fuc(b1-3)GlcNAc
In short: as §1

[4] = target: Gal(a1-2)Gal
In short: as §1

[5] = target: Gal(a1-3)Gal
In short: as §1

[6] = target: Gal(a1-3)Gal(b1-3)GlcNAc
In short: as §1

[7] = target: Gal(a1-3)Gal(b1-4)Glc
In short: as §1

[8] = target: Gal(a1-3)Gal(b1-4)GlcNAc
In short: as §1

[9] = target: Gal(a1-3)Gal(b1-4)[Fuc(a1-3)]GlcNAc
In short: as §1

[10] = target: Gal(a1-3)GalNAc
In short: as §1

[11] = target: Gal(a1-3)[Gal(a1-4)]Gal(b1-4)GlcNAc
In short: as §1

[12] = target: Gal(a1-4)Gal(b1-4)Glc
In short: as §1

[13] = target: Gal(a1-4)Gal(b1-4)GlcNAc
In short: as §1

[14] = target: Gal(a1-4)GlcNAc
In short: as §1

[15] = target: Gal(a1-6)Glc
In short: as §1

[16] = target: Gal(b1-2)Gal
In short: as §1

[17] = target: Gal(b1-3)Gal
In short: as §1

[18] = target: Gal(b1-3)Gal(b1-4)GlcNAc
In short: as §1

[19] = target: Gal(b1-3)GalNAc
In short: as §1

[20] = target: Gal(b1-3)GalNAc(b1-3)Gal(a1-4)Gal(b1-4)Glc
In short: as §1

[21] = target: Gal(b1-3)GalNAc(b1-4)Gal(b1-4)Glc
In short: as §1

[22] = target: Gal(b1-3)GalNAc(b1-4)[Neu5Ac(a2-3)]Gal(b1-4)Glc
In short: as §1

[23] = target: Gal(b1-3)GlcNAc
In short: as §1

[24] = target: Gal(b1-3)GlcNAc(b1-2)Man(a1-3)[Gal(b1-3)GlcNAc(b1-2)Man(a1-6)]Man(b1-4)GlcNAc(b1-4)GlcNAc
In short: as §1

[25] = target: Gal(b1-3)GlcNAc(b1-3)Gal(b1-3)GlcNAc
In short: as §1

[26] = target: Gal(b1-3)GlcNAc(b1-3)Gal(b1-4)Glc
In short: as §1

[27] = target: Gal(b1-3)GlcNAc(b1-3)Gal(b1-4)GlcNAc
In short: as §1

[28] = target: Gal(b1-3)[Fuc(a1-4)]GlcNAc
In short: as §1

[29] = target: Gal(b1-3)[Fuc(a1-4)]GlcNAc(b1-3)Gal(b1-3)[Fuc(a1-4)]GlcNAc
In short: as §1

[30] = target: Gal(b1-3)[Fuc(a1-4)]GlcNAc(b1-3)Gal(b1-4)GlcNAc
In short: as §1

[31] = target: Gal(b1-3)[Fuc(a1-4)]GlcNAc(b1-3)Gal(b1-4)[Fuc(a1-3)]GlcNAc
In short: as §1

[32] = target: Gal(b1-3)[GlcNAc(b1-6)]GalNAc
In short: as §1

[33] = target: Gal(b1-3)[Neu5Ac(a2-6)]GalNAc
In short: as §1

[34] = target: Gal(b1-3)[Neu5Ac(a2-6)]GlcNAc(b1-6)Gal(b1-4)Glc
In short: as §1

[35] = target: Gal(b1-3)[Neu5Ac(b2-6)]GalNAc
In short: as §1

[36] = target: Gal(b1-4)GalNAc(a1-3)[Fuc(a1-2)]Gal(b1-4)GlcNAc
In short: as §1

[37] = target: Gal(b1-4)GalNAc(b1-3)[Fuc(a1-2)]Gal(b1-4)GlcNAc
In short: as §1

[38] = target: Gal(b1-4)Glc
In short: as §1

[39] = target: Gal(b1-4)Glc6S
In short: as §1

[40] = target: Gal(b1-4)GlcNAc
In short: as §1

[41] = target: Gal(b1-4)GlcNAc(a1-6)Gal(b1-4)GlcNAc
In short: as §1

[42] = target: Gal(b1-4)GlcNAc(b1-2)Man(a1-3)[Gal(b1-4)GlcNAc(b1-2)Man(a1-6)]Man(b1-4)GlcNAc(b1-4)GlcNAc
In short: as §1

[43] = target: Gal(b1-4)GlcNAc(b1-3)Gal(b1-3)GlcNAc
In short: as §1

[44] = target: Gal(b1-4)GlcNAc(b1-3)Gal(b1-4)Glc
In short: as §1

[45] = target: Gal(b1-4)GlcNAc(b1-3)Gal(b1-4)GlcNAc
In short: as §1

B1: Mcg Light Chain Dimer (Homo sapiens), Q6PIK1 (protein)
chain: MAGFPLLLTLLTHCAGSWGQSLLTQPPSVSGTPGQRVTISCSGSSSNIGINYVYWYQQIPGTAPKLLISTNDQRPSGVPDRFSGSKSGTSASLAIGGLRSEDEAHYYCAAWDDSMSGPGYAFGTGTKVTVLRQPKANPTVTLFPPSSEELQANKATLVCLISDFYPGAVTVAWKADGSPVKAGVETTKPSKQSNNKYAASSYLSLTPEQWKSHRSYSCQVTHEGSTVEKTVAPTECS
[1]
  glycan array binding signal (z-score): 0.354
[2]
  glycan array binding signal (z-score): -0.987
[3]
  glycan array binding signal (z-score): -0.12
[4]
  glycan array binding signal (z-score): -0.884
[5]
  glycan array binding signal (z-score): 0.2
[6]
  glycan array binding signal (z-score): -0.979
[7]
  glycan array binding signal (z-score): -1.04
[8]
  glycan array binding signal (z-score): 0.187
[9]
  glycan array binding signal (z-score): 0.315
[10]
  glycan array binding signal (z-score): 0.154
[11]
  glycan array binding signal (z-score): -1.03
[12]
  glycan array binding signal (z-score): 0.573
[13]
  glycan array binding signal (z-score): -0.228
[14]
  glycan array binding signal (z-score): -0.936
[15]
  glycan array binding signal (z-score): 0.141
[16]
  glycan array binding signal (z-score): -0.714
[17]
  glycan array binding signal (z-score): -0.918
[18]
  glycan array binding signal (z-score): -0.929
[19]
  glycan array binding signal (z-score): -0.77
[20]
  glycan array binding signal (z-score): 0.426
[21]
  glycan array binding signal (z-score): -0.118
[22]
  glycan array binding signal (z-score): -0.926
[23]
  glycan array binding signal (z-score): -0.473
[24]
  glycan array binding signal (z-score): -1.05
[25]
  glycan array binding signal (z-score): 0.26
[26]
  glycan array binding signal (z-score): -0.803
[27]
  glycan array binding signal (z-score): 0.658
[28]
  glycan array binding signal (z-score): -0.195
[29]
  glycan array binding signal (z-score): -0.994
[30]
  glycan array binding signal (z-score): -0.946
[31]
  glycan array binding signal (z-score): 0.657
[32]
  glycan array binding signal (z-score): -0.568
[33]
  glycan array binding signal (z-score): -0.977
[34]
  glycan array binding signal (z-score): -0.733
[35]
  glycan array binding signal (z-score): 0.245
[36]
  glycan array binding signal (z-score): -0.011
[37]
  glycan array binding signal (z-score): -0.873
[38]
  glycan array binding signal (z-score): -0.187
[39]
  glycan array binding signal (z-score): 0.905
[40]
  glycan array binding signal (z-score): -0.557
[41]
  glycan array binding signal (z-score): -0.945
[42]
  glycan array binding signal (z-score): 0.659
[43]
  glycan array binding signal (z-score): 0.805
[44]
  glycan array binding signal (z-score): 0.133
[45]
  glycan array binding signal (z-score): -0.321
